Reference: US20160289313A1
These are yes or no findings as the source states them, for the method shown. Some entries that bind do so weakly or less than the wild type.

Sequences of proteins named here, by UniProt entry; tags and fusion partners are left off. A change or cut given only in a name is not applied to a line headed by its entry. A line that says so, or that is headed by a name, gives the form on record, which may keep a tag or linker.
recombinant canine VEGF protein (Q9MYV3, form named): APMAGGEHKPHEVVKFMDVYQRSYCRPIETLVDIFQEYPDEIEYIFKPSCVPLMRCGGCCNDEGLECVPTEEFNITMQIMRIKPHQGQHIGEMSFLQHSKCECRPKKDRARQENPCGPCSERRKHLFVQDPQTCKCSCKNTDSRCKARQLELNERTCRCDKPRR

Target: recombinant canine VEGF protein (canine) (UniProt Q9MYV3)
Experiment: ELISA screening of hybridoma clones, first on mammalian cell-produced and then on E. coli-produced canine VEGF; mAb 57C was selected from the positive clones

binding: binds
B1: anti-canine VEGF antibody mAb 57C (antibody, V domains shown)
VH: QVQLQQSGAELMKPGASVKISCKATGYTFSSYWIEWVKQRPGHGLEWIGEIFPGGGDPKYNENFKGKATFTTDASSNTAYMQLSSLTSEDSAVYYCARGTFGFYAMDYWGQGTSVTVSS
VL: DAVMTQTPLSLPVSLGDQVSISCRSSQSLENSNGNTYLNWYLQKPGQSPQLLIYRVSNRFSGVLDRFSGSGSGTDFTLKISRVEAEDLGVYFCLQVTHVPYTFGGGTKLEIKR
